Some entries share one result that the patent states for a list of compounds.
Tests used:
TFPI = biological target: T1, TFPI (Homo sapiens, UniProt P10646); test: dPT assay, inhibition of TFPI activity in Hem-A plasma, TFPI preincubated with NASP; format: biochemical; settings: for breadth of neutralization of TFPI effect: concentration range, e.g. 5 to 500 nM; for concentration that accelerates (shortens) clotting of Hem-A plasma containing TFPI: dPT, preincubation
T1 construct: purchased American Diagnostica (Stamford, Conn.)
T1 sequence (P10646 29-304): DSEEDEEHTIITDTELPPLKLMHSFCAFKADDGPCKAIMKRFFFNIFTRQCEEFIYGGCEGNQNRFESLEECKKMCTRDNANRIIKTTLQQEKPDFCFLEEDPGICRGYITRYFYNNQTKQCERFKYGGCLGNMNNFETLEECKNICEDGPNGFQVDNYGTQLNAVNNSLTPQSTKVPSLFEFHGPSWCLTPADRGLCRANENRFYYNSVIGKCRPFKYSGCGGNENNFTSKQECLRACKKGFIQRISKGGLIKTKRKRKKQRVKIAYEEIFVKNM
Experimental: The dPT assay used was a modified standard clinical PT assay (Nordfang et al. (1991) Thromb Haemost 66:464-467; Welsch et al. (1991) Thrombosis Research 64: 213-222). SIMPLASTIN EXCEL thromboplastin reagent (Organon Teknika) was reconstituted with the manufacturer's diluent and further diluted 1:100 in 0.9% saline. The thromboplastin reagent, 25 mM CaCl2, and plasma samples were pre-warmed to 37° C. before initiating the assay. 100 μl of thawed plasma was aliquoted into microcentrifuge tubes. […] 100 μl of the diluted thromboplastin reagent and 100 μl of 25 mM CaCl2 were added to fibrin cups (Fisher) prewarmed to 37° C. 100 μl of plasma (normal or hemophilic) containing the test agent or saline control was added to the fibrin cups containing the thromboplastin reagent and CaCl2 to initiate clotting. The time for plasma clotting was measured with a BBL FIBROSYSTEM fibrometer.
Inhibition of TFPI activity by NASPs was assessed in dPT clotting assays with normal or hemophilic plasma and added recombinant TFPI. Diluted recombinant TFPI was preincubated with NASPs for 5 minutes at room temperature before plasma was added. After addition of plasma, the mixture was incubated for an additional 25 minutes followed by dPT initiation.

human plasma = test: Clotting assays (dPT, aPTT) in human plasma, summary statements; format: biochemical; settings: human hemophilia A and B plasmas or plasma with reduced FVII levels
[1] = may be as short as; cited from earlier work

Substance | breadth of neutralization of TFPI effect (TFPI) [fold] | concentration that accelerates (shortens) clotting of Hem-A plasma containing TFPI (TFPI) | concentrations at which TFPI was inhibited and clotting time improved (human plasma) [nM] | half-lives [1] [h]
Fucoidan | ≥ 100 | greater than 1 nM | 4 to 500 | 1 to 2
Pentosan Polysulphate Sodium [PPS] | ≥ 100 | greater than 1 nM | 4 to 500 | 1 to 2
